The source of these data is publication PMC7819943, “Rice protein-binding microarrays: a tool to detect cis-acting elements near promoter regions in rice”.

The list shows a part of the results.

The test concerns the target T1, OsSMF1 (Oryza sativa, UniProt Q6ZLB0 1-436).
T1 sequence: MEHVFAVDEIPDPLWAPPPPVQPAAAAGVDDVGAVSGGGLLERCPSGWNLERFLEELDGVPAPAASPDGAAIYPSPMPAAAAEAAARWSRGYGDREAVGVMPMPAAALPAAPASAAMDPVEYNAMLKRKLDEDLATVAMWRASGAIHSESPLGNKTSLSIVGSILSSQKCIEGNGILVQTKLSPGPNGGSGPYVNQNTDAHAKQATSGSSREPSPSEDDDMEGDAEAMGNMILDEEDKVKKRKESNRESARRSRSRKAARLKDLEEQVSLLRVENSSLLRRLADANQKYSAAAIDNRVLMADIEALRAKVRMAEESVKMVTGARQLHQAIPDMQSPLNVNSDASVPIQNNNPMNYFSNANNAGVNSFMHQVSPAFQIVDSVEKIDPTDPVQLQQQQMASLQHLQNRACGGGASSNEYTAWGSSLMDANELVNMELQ
In words: protein-binding microarray (RPBM); PBS, 2% BSA, 51.3 ng/ul salmon testes DNA, 50 uM zinc acetate, 200 nM TF, 25 C, 1 h; high values mean tight binding. The following applies: protein: recombinant; tags: N-terminal polyhistidine and DsRed monomer fusion (pET32a); chain copies: 2; label: CyDye5-dUTP incorporated in the synthesized complementary strand; 3' TTTTT single-stranded linker to array surface; dsDNA, one strand shown. Put shortly:
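The binding signal is fluorescence intensity per feature, in arbitrary units, read on an Axon 4000B scanner. Polyhistidine- and DsRed-tagged transcription factors (N-terminal fusions) from E. coli BL21-CodonPlus were purified on Ni–NTA and applied at 200 nM for 1 h at 25 °C to a double-stranded, BSA-blocked custom Agilent array in buffer with 50 µM zinc acetate.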
For “TCCATATGGCATTGCCACATCAGCGCCACATAGGATCGCACGGAGTCACCTAGTGCAG”, the binding signal is 32000 fluorescence intensity (a.u.).

“GGCCCCACATGTCATCTCCTCCCTTTCTTCTTCCTCCCCTCGGAGTCACCTAGTGCAG”: the binding signal was 4040 fluorescence intensity (a.u.).

Take “GCTAATCGGCGGCGCGTGACGTTAGCTCACCTGAAGCGGTCGGAGTCACCTAGTGCAG”: the binding signal is 6370 fluorescence intensity (a.u.).

With “GAACCCCGGACAAAATTGGGGCAGCACCGCGTGACACATTCGGAGTCACCTAGTGCAG”, the binding signal was 3540 fluorescence intensity (a.u.).

As to “CCCGCCACCGCGCAGCCGCCCGACGCCGTCGCCGCTCGTCCGGAGTCACCTAGTGCAG”, the binding signal is 16400 fluorescence intensity (a.u.).

In the case of “GAGAGCCTGAGAAAAGGCGTGTTGCTGATGCGGGTTTTCCCGGAGTCACCTAGTGCAG”, the binding signal is 3420 fluorescence intensity (a.u.).

With “GCACCACCACCGCGTCAGTATACAAACGGCGGCGACCAACCGGAGTCACCTAGTGCAG”, the binding signal is 3860 fluorescence intensity (a.u.).

For “TTTGAAGGGAATTACAGATGTGCTTGGCTCAAAATGCAGACGGAGTCACCTAGTGCAG”, the binding signal was 3380 fluorescence intensity (a.u.).

On to “TTCTCCCCTTTCATCTCCACGCGCCCACCGCTTCCCGCTCCGGAGTCACCTAGTGCAG”, for which the binding signal was 3210 fluorescence intensity (a.u.).

Take “ATGTACTTGTGATTCGTGGATTGGTGGACATGACAGGTAACGGAGTCACCTAGTGCAG”: the binding signal is 3200 fluorescence intensity (a.u.).

With “AGTTTTATCCTACGTGGCTGCTGAGTCAGCGTGGGACCCACGGAGTCACCTAGTGCAG”, the binding signal is 38600 fluorescence intensity (a.u.).

With “ACCACAATGGCATACGTGTCATGCAACCAAATAGGGAGCACGGAGTCACCTAGTGCAG”, the binding signal is 5620 fluorescence intensity (a.u.).

On to “GAGATATCTGTTGATTAAAGTCCCCATGGATTAGCTGTGTCGGAGTCACCTAGTGCAG”, for which the binding signal was 35000 fluorescence intensity (a.u.).

In the case of “TTCATATCATGAACCTTCCAATGGCATCATCTACGAAATGCGGAGTCACCTAGTGCAG”, the binding signal was 3590 fluorescence intensity (a.u.).

Regarding “GCCGGGCGGGCGTGCGTCGTTATGTGAGGGCAAGGCCGCTCGGAGTCACCTAGTGCAG”, the binding signal is 6060 fluorescence intensity (a.u.).

Take “GTGAGGAGGGTGAGGACGAAGTAGTCCGGGAGGTCGGCGCCGGAGTCACCTAGTGCAG”: the binding signal is 23000 fluorescence intensity (a.u.).

As to “TGTGTTGGATCGGTTGGACGCGCTCACTCGGTTTGGTTTGCGGAGTCACCTAGTGCAG”, the binding signal is 3290 fluorescence intensity (a.u.).

On to “CATCCCGCTCAACTACGCCACGTTCCAGCCGGGCACCACGCGGAGTCACCTAGTGCAG”, for which the binding signal is 22200 fluorescence intensity (a.u.).

Consider “CAGTATATTTTCAAATTTAATTTGGCTTGAGGCAGCTGCCCGGAGTCACCTAGTGCAG”, for which the binding signal is 3160 fluorescence intensity (a.u.).

As for “CCCGGGAACACGCTCCAGAGATGCTGACTATCTTTCCCTTCGGAGTCACCTAGTGCAG”, the binding signal is 7100 fluorescence intensity (a.u.).

Turning to “TTTAAACATCTTTCTATGGAACTGGTGCATTCTTGTTCATCGGAGTCACCTAGTGCAG”, the binding signal was 3680 fluorescence intensity (a.u.).

With “TATATGGTCCAACCTGTCATACACACATTGCGTATTGGAGCGGAGTCACCTAGTGCAG”, the binding signal was 4270 fluorescence intensity (a.u.).

For “GTGCATGGCGTGGCGTGGCGTGGCGTGGCGTGACATGGCACGGAGTCACCTAGTGCAG”, the binding signal is 15900 fluorescence intensity (a.u.).

Turning to “AAATAAATAGGGAATTTAACCTTGCCACGTCACCGATCCGCGGAGTCACCTAGTGCAG”, the binding signal is 48100 fluorescence intensity (a.u.).

For the sequence “TCCTTCCATACTGTATAAATACTTTGAAATTCTAATATAGCGGAGTCACCTAGTGCAG”, the binding signal was 44200 fluorescence intensity (a.u.).

“CTCAGCACTAAGCTCTTATGTGTGTGTCACACTGTCACTACGGAGTCACCTAGTGCAG”: the binding signal was 4720 fluorescence intensity (a.u.).

As to “CTCATGTGAAATGTGTCGGTGACTCGTAGTCTTGCCCATGCGGAGTCACCTAGTGCAG”, the binding signal was 4260 fluorescence intensity (a.u.).

Consider “AGACTGGTGCTGCTGGATCCGTCTACCGTGGCTTGCCACCCGGAGTCACCTAGTGCAG”, for which the binding signal is 4850 fluorescence intensity (a.u.).

Consider “TTTTATGTATGTATTCAAATATTTCGATGTGACGGAATTTCGGAGTCACCTAGTGCAG”, for which the binding signal is 4210 fluorescence intensity (a.u.).

As for “CAAAAGGGAATGCTTTAGGCAGATCATGGAGATAAAGACTCGGAGTCACCTAGTGCAG”, the binding signal is 39000 fluorescence intensity (a.u.).

Regarding “CACGTGCAGTGACATGCTGACGTATGGGTGCAGGCCGCTGCGGAGTCACCTAGTGCAG”, the binding signal is 4260 fluorescence intensity (a.u.).

For “AAGTATGCTAGCTTTCCCTCCACGTATGCTAGCTTTCCGACGGAGTCACCTAGTGCAG”, the binding signal is 10400 fluorescence intensity (a.u.).

“CCAGAGCTGCCTGTTACGTGGCCGACGACCACCGGTAGTGCGGAGTCACCTAGTGCAG”: the binding signal is 6320 fluorescence intensity (a.u.).

For the sequence “CGGCACCTCAGCACATCACACCAGATATATAATTAACCACCGGAGTCACCTAGTGCAG”, the binding signal is 4030 fluorescence intensity (a.u.).

Take “AATCCACACTGGGCCCTTGCATGGAGCATGGGCCGAATAACGGAGTCACCTAGTGCAG”: the binding signal was 3810 fluorescence intensity (a.u.).

With “ACACCCATAGAACAAGAAACTGCCTCGTCACCGTAGCTTACGGAGTCACCTAGTGCAG”, the binding signal is 7850 fluorescence intensity (a.u.).

On to “GTGGGCCGTGCCTCCCGTGACGCCATTTCAGCGACCGGAACGGAGTCACCTAGTGCAG”, for which the binding signal is 3480 fluorescence intensity (a.u.).

In the case of “GAGAGGGGACGGGACAGCCGGCCGATGCTAAGTGGGTCTCCGGAGTCACCTAGTGCAG”, the binding signal was 4840 fluorescence intensity (a.u.).

Consider “GCGTGCACTCCCGTCCTGTTGTCGTGCCGTCTCCAGTCCCCGGAGTCACCTAGTGCAG”, for which the binding signal is 3210 fluorescence intensity (a.u.).

On to “CTAAAGTTGTATTGAAAGCTCGTTCTACTGCCTATCTTTTCGGAGTCACCTAGTGCAG”, for which the binding signal was 16100 fluorescence intensity (a.u.).

Take “TCGAGCCGGTAGATGTCTCAGCTAGTGCTTTATCTGTTCGCGGAGTCACCTAGTGCAG”: the binding signal was 3180 fluorescence intensity (a.u.).

Take “ATCGCCCCGCTGACCGCCTCCTCCCGCGGCTGTCCGAGCGCGGAGTCACCTAGTGCAG”: the binding signal is 41300 fluorescence intensity (a.u.).
